Measured values from article PMC8490721.
Results are given in words; binding and its absence hold for the method and conditions named. Binding seen in cells or lysates may run through a third protein. Some binding calls cover weakened binding; strength is not graded here.

Protein sequences, listed by entry. Tags and fused reporters are not part of them.
UniProt Q13177: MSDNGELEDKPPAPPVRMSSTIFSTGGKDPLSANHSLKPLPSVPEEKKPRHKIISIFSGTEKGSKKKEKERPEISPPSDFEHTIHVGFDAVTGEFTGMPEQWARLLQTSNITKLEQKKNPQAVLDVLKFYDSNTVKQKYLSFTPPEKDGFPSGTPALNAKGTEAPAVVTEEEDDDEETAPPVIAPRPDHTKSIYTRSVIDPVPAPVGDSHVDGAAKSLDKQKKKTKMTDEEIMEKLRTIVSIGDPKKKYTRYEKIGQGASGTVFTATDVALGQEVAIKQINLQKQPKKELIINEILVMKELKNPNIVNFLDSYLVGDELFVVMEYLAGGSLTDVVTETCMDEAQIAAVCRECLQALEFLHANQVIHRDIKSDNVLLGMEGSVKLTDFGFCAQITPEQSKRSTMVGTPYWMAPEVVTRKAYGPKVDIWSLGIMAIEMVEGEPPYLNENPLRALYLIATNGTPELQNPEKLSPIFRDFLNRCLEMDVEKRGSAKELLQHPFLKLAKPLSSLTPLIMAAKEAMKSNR
UniProt P48431: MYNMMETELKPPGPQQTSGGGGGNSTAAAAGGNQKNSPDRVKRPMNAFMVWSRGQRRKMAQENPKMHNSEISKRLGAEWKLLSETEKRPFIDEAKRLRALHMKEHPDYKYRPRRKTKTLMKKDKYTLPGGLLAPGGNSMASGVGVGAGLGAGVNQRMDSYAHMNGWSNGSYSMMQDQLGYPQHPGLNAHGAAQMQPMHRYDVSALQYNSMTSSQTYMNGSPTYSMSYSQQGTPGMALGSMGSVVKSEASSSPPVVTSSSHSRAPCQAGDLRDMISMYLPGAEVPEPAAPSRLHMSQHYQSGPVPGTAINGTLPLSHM

Molecular target: P21 (RAC1) activated kinase 2 (human (endogenous in CaOV3 and SKOV3)) (UniProt Q13177)
Assay: co-IP; lysates (RIPA buffer with protease inhibitors) of untransfected and transfected CaOV3 and SKOV3 cells incubated with PAK2 antibody, SOX2 antibody or control IgG at 4°C overnight, Protein A/G PLUS-Agarose beads 2 h at 4°C, Western blot; also in cells overexpressing lncRNA RP11-499E18.1 (interaction markedly reduced against the NC group)

- binding: binds
Substance: SRY-box transcription factor 2 (from UniProt P48431 1-317)
